Test results published in the supplement of paper PMC10849652.
The list shows a part of the results.

Chains of the proteins cited; added tags and fusions are not shown. Lines headed by an entry give the natural chain unless they say otherwise; changes in a name come on top.
UniProt P35914: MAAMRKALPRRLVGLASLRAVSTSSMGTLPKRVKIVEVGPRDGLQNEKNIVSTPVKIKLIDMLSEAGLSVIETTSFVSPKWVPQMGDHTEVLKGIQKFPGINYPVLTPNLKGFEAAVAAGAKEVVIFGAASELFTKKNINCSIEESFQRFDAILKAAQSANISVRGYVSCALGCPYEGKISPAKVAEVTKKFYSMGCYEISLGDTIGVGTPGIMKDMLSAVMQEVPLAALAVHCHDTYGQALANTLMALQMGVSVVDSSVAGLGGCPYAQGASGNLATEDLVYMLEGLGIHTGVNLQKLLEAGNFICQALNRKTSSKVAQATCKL
UniProt P10809, whole entry, looked up: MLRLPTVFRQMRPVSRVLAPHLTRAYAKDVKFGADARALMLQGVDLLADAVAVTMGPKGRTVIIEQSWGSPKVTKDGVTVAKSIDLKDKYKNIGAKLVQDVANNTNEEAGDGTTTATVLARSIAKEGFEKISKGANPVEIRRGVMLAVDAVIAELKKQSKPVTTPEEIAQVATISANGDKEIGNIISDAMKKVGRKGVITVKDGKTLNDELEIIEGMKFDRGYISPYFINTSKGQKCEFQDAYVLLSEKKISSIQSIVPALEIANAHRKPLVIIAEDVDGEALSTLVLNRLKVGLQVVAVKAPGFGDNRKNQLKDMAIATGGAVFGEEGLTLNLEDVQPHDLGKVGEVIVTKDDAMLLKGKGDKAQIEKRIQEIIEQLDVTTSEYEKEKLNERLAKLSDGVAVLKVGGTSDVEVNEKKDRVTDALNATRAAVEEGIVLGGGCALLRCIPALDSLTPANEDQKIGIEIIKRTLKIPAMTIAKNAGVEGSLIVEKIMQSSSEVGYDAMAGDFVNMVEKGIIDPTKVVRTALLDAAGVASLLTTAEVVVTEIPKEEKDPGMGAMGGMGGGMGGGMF
UniProt Q00613: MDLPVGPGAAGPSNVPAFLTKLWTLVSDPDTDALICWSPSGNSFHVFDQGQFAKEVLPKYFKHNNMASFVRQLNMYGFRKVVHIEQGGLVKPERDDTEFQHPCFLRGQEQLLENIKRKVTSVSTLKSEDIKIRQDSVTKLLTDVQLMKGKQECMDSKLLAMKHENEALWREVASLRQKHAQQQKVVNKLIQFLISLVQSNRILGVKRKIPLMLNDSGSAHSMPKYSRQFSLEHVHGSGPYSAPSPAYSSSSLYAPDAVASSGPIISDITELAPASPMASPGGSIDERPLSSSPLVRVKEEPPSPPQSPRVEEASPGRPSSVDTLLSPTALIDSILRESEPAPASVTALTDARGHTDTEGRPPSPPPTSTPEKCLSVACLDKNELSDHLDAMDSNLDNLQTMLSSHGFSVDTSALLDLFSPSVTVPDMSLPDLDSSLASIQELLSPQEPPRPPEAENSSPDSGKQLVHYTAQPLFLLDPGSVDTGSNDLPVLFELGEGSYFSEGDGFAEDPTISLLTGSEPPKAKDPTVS
UniProt Q14103: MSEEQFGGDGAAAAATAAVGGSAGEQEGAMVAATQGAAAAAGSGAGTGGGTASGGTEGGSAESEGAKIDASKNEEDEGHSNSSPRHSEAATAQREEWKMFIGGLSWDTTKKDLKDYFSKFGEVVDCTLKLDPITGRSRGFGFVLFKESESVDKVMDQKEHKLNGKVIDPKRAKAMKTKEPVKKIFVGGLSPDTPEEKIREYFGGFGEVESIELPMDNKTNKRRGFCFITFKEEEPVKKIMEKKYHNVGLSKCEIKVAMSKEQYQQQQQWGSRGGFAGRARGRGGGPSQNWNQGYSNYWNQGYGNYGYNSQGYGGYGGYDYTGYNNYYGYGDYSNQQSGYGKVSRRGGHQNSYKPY
UniProt Q8TCT9: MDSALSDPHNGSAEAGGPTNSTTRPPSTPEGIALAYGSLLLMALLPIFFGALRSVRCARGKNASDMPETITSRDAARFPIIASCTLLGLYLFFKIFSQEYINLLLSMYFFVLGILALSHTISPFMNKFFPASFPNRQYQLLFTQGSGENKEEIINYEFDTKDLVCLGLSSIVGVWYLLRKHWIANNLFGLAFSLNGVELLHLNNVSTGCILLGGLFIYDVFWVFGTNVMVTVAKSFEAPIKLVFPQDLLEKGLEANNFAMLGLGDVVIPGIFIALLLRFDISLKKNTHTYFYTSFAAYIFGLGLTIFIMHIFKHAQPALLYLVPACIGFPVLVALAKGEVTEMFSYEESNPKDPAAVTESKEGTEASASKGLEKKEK
UniProt Q9NX55: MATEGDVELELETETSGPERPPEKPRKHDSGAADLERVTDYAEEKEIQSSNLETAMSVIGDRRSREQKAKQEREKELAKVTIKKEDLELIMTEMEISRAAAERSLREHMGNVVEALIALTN
UniProt O14979: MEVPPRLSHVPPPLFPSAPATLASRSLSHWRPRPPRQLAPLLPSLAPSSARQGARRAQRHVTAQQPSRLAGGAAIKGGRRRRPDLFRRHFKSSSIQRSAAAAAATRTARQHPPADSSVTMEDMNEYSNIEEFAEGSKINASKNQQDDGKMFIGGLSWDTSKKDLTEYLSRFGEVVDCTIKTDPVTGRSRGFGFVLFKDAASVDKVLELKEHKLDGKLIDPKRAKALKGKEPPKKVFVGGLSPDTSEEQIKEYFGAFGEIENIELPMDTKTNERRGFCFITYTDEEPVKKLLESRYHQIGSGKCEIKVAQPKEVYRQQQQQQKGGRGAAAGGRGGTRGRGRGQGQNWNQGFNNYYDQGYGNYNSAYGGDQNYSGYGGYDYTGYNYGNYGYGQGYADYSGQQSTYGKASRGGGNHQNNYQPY
UniProt P31937: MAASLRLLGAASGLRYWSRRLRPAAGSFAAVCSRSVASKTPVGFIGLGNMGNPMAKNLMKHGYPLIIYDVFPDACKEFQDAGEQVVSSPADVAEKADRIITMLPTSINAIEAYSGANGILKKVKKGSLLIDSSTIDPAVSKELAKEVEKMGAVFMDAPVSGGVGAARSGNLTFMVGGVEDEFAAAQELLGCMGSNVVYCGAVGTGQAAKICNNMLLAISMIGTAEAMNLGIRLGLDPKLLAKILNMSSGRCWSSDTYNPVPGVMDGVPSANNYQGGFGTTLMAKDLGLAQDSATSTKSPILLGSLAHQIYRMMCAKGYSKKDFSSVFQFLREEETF
UniProt P04792, whole entry, looked up: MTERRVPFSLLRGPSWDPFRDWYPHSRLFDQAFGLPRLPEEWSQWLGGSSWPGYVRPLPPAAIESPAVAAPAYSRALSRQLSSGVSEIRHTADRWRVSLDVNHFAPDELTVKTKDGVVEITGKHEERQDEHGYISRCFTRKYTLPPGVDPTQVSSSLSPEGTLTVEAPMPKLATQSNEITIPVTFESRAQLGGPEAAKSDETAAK
UniProt O43719: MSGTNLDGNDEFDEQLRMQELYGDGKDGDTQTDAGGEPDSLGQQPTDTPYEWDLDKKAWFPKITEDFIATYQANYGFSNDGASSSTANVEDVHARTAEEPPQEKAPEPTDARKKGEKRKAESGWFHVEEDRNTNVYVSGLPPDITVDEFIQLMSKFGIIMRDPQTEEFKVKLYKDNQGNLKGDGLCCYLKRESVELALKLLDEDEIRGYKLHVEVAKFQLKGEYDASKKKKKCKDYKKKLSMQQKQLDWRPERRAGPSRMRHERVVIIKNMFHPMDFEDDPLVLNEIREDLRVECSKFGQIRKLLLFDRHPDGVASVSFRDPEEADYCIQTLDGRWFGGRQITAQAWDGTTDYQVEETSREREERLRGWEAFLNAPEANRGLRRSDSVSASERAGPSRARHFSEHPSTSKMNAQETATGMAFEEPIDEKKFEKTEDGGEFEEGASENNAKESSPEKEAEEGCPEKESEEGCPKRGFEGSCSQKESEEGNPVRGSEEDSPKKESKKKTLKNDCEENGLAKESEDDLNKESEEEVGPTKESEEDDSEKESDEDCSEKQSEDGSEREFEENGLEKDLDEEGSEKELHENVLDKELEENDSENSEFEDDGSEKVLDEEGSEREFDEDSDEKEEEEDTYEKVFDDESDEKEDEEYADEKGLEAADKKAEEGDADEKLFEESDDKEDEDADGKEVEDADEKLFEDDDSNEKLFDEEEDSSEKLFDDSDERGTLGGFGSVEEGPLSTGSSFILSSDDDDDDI
UniProt Q92506: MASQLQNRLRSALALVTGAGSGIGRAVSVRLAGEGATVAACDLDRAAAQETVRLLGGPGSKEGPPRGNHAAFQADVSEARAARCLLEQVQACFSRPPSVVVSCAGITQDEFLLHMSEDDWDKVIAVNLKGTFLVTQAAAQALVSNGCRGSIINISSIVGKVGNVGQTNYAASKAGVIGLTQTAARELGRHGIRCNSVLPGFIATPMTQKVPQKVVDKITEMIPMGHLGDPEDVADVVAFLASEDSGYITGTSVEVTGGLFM
UniProt P08238, whole entry, looked up: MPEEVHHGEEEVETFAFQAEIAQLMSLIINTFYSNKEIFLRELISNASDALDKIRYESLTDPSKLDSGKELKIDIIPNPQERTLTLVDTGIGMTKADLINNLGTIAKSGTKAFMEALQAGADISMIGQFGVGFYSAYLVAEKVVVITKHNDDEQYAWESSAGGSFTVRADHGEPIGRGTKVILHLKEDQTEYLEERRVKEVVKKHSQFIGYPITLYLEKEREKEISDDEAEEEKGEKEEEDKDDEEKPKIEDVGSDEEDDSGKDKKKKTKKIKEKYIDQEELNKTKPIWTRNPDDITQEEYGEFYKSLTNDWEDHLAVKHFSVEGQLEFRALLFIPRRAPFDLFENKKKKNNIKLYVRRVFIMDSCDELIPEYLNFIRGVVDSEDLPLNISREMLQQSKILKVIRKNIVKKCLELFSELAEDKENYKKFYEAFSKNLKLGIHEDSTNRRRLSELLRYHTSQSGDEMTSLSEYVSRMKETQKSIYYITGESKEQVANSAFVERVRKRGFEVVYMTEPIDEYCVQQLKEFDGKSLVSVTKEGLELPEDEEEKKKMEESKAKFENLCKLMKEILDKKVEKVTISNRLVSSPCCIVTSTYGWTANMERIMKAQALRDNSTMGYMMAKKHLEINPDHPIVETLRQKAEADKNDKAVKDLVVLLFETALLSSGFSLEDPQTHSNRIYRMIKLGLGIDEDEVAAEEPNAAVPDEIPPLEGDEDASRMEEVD
UniProt Q5T440: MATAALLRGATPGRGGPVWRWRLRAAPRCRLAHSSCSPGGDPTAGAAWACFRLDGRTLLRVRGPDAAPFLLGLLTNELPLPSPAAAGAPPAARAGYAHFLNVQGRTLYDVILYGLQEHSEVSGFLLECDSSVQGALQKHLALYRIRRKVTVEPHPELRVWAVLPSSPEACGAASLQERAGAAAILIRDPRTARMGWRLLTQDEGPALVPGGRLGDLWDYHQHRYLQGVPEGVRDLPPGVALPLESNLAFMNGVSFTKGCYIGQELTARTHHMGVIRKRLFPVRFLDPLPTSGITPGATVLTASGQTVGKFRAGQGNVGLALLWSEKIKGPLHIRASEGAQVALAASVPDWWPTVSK
UniProt O75330: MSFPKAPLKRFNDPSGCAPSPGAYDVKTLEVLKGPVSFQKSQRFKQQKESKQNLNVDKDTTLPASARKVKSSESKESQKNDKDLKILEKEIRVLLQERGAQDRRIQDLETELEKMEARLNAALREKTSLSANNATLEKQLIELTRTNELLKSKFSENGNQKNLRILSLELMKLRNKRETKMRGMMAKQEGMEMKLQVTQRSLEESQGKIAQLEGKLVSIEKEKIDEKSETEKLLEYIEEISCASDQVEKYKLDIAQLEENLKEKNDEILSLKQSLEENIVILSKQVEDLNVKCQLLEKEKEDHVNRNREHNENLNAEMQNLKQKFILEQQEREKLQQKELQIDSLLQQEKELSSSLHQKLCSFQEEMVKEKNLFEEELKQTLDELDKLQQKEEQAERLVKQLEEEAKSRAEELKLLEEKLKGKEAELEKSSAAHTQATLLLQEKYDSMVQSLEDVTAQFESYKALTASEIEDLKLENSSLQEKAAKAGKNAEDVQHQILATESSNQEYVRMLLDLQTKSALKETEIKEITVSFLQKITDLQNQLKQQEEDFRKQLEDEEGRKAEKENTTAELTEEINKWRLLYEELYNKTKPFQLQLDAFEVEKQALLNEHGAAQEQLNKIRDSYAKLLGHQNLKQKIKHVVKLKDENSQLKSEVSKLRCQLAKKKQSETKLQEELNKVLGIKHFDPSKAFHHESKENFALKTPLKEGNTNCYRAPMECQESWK
UniProt P26583: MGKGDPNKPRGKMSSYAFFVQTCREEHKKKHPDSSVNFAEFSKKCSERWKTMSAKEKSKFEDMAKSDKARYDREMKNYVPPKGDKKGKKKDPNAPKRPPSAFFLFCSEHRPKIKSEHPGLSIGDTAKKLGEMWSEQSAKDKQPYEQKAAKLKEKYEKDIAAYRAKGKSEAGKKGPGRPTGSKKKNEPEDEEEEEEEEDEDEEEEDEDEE
UniProt P17096: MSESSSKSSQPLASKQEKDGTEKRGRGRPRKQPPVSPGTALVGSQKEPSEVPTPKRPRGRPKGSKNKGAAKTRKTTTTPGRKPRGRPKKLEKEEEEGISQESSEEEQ

Legend:
Assay in all cases: log2 fold change, soluble protein after heating vs DMSO (PISA); higher = thermal stabilisation; K562 cells, 10 uM, 30 min; active = over 0.2 and 3.5 SD of the protein, either way, in both replicates (recomputed)
[1] = compound: CC[C@@H]1C(=O)N(C)c2cnc(Nc3ccc(C(=O)NC4CCN(C)CC4)cc3OC)nc2N1C1CCCC1
How it was run: (§1)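 K562 cells at 2×10^6 cells/mL were treated with 10 μM compound for 30 min. Aliquots were heated for 3 min across 48°C-58°C, pooled, and extracted in PBS with 0.5% NP-40 at 4°C; soluble protein was the supernatant after 21,000xg for 90 min. Soluble protein was quantified by TMTpro 16plex LC-MS/MS with channel sums equalised, and reported as log2 fold change in thermal stability against DMSO controls, with values from duplicates.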

[2] = compound: CC[C@@H]1C(=O)N(C)c2cnc(Nc3ccc(C(=O)N[C@H]4CC[C@H](N5CCN(CC6CC6)CC5)CC4)cc3OC)nc2N1C(C)C [volasertib]
How it was run: as §1

[3] = compound: CC[C@H](C)N1C=C(C2=C(C=C(C=C21)C3=CN=C(C=C3)N4CCNCC4)C(=O)NCC5=C(C=C(NC5=O)C)C)C
How it was run: as §1

[4] = compound: CC[C@H](C)[C@@H](C(=O)N[C@@H]([C@@H](C)O)C(=O)N[C@@H](CC(C)C)C(=O)[C@]1(CO1)C)NC(=O)[C@H]([C@@H](C)CC)N(C)C(=O)C [epoxomicin]
How it was run: as §1

[5] = compound: CCn1c(C(=O)N(C2CC2)C2CC2)cc2c3c(ncn3C)c(Nc3cc(C)n(C)n3)nc21
How it was run: as §1

[6] = compound: CCn1cc(-c2ccnc3[nH]c(-c4cccc(CN(C)C)c4)cc23)c(-c2ccc(NC(=O)N(C)C)cc2)n1
How it was run: as §1

[7] = compound: CN(C)CC(=O)Nc1ccc2[nH]c(=O)c3ccccc3c2c1
How it was run: as §1

[8] = compound: CN(CCOC1=CC=C(C=C1)C[C@H]2C(=O)NC(=O)S2)C3=CC=CC=N3 (racemic) [rosiglitazone]
How it was run: as §1

[9] = compound: CN1C2=C(C3=C1C(=O)N(N=C3)CC4=CC(=CC=C4)N)SC(=C2)S(=O)C
How it was run: as §1

[10] = compound: CN1CCC(CNc2ccc3ncc(-c4cccc(OC(F)(F)F)c4)n3n2)CC1
How it was run: as §1

Measured: log2 fold change

HSPA1L (UniProt P34931)
inactive: [1] -0.017 | [2] 0.077 | [3] -0.084 | [4] -0.021 | [5] 0.021 | [6] -0.077 | [7] -0.03 | [8] 0.04 | [9] -0.104 | [10] -0.098

HSPA4 (UniProt P34932)
inactive: [1] -0.031 | [2] -0.022 | [3] 0.032 | [4] 0.035 | [5] 0.024 | [6] -0.035 | [7] -0.019 | [8] 0.015 | [9] -0.076 | [10] 0.011

HMGCL (UniProt P35914)
inactive: [1] 0.03 | [2] 0.002 | [3] 0.011 | [4] 0.042 | [5] 0.012 | [6] -0.131 | [7] -0.015 | [8] -0.047 | [9] -0.035 | [10] 0.005

HSPD1 (UniProt P10809)
inactive: [1] -0.011 | [2] 0.094 | [3] -0.048 | [4] 0.013 | [5] 0.003 | [6] 0.043 | [7] -0.02 | [8] -0.003 | [9] -0.033 | [10] 0.021

HSPG2 (UniProt P98160)
inactive: [1] -0.002 | [2] 0.117 | [3] 0.003 | [4] -0.088 | [5] -0.003 | [6] -0.077 | [7] 0.011 | [8] 0.032 | [9] -0.005 | [10] 0.13

HSF1 (UniProt Q00613)
inactive: [1] -0.155 | [2] -0.324 | [3] 0.056 | [4] -0.023 | [5] -0.139 | [6] -0.222 | [7] 0.221 | [8] 0.156 | [9] 0.01 | [10] -0.322

HK1 isoform 2 (UniProt P19367)
inactive: [1] -0.02 | [2] -0.252 | [3] -0.012 | [4] 0.015 | [5] -0.045 | [6] 0 | [7] -0.018 | [8] 0.02 | [9] -0.046 | [10] -0.022

HMBS (UniProt P08397)
inactive: [1] 0.002 | [2] 0.054 | [3] -0.014 | [4] 0.012 | [5] 0.026 | [6] 0.008 | [7] -0.001 | [8] -0.008 | [9] -0.024 | [10] -0.072

HNRNPD isoform 4 (UniProt Q14103)
inactive: [1] 0.192 | [2] 0.154 | [3] -0.061 | [4] -0.192 | [5] 0 | [6] 0.14 | [7] -0.072 | [8] -0.05 | [9] 0.31 | [10] 0.222

HM13 isoform 2 (UniProt Q8TCT9)
inactive: [1] 0.043 | [2] 0.055 | [3] -0.083 | [4] 0.014 | [5] 0.007 | [6] 0.048 | [7] 0.02 | [8] 0.006 | [9] -0.037 | [10] 0.065

HYPK (UniProt Q9NX55)
inactive: [1] 0.043 | [2] 0.073 | [3] -0.019 | [4] -0.011 | [5] 0.055 | [6] -0.029 | [7] 0.01 | [8] 0.015 | [9] -0.038 | [10] -0.041

HSD17B11 (UniProt Q8NBQ5)
inactive: [1] 0.043 | [2] -0.042 | [3] 0.004 | [4] 0.007 | [5] -0.014 | [6] -0.047 | [7] 0.007 | [8] -0.003 | [9] -0.073 | [10] 0.048

HYOU1 (UniProt Q9Y4L1)
inactive: [1] 0.002 | [2] -0.033 | [3] 0.02 | [4] 0.011 | [5] 0.045 | [6] 0.056 | [7] -0.007 | [8] -0.002 | [9] 0.031 | [10] 0.105

HNRNPDL (UniProt O14979)
inactive: [1] 0.259 | [2] 0.217 | [3] -0.051 | [4] -0.19 | [5] -0.071 | [6] 0.205 | [7] -0.136 | [8] -0.155 | [9] 0.173 | [10] 0.225

HMGCS1 (UniProt Q01581)
inactive: [1] 0.022 | [2] -0.007 | [3] 0.003 | [4] 0.039 | [5] 0.008 | [6] -0.025 | [7] -0.022 | [8] -0.009 | [9] -0.043 | [10] -0.165

HSPA9 (UniProt P38646)
inactive: [1] -0.07 | [2] 0.022 | [3] -0.033 | [4] 0.028 | [5] 0.025 | [6] 0.063 | [7] -0.014 | [8] -0.011 | [9] -0.038 | [10] 0.007

HIBADH (UniProt P31937)
inactive: [1] 0.01 | [2] 0.043 | [3] -0.017 | [4] -0.032 | [5] 0.033 | [6] 0.018 | [7] -0.008 | [8] -0.013 | [9] -0.037 | [10] 0.07

HSPB1 (UniProt P04792)
inactive: [1] 0.023 | [2] -0.064 | [3] 0.028 | [4] -0.049 | [5] 0.016 | [6] 0.012 | [7] -0.005 | [8] 0.016 | [9] 0.096 | [10] 0.019

HTATSF1 (UniProt O43719)
inactive: [1] -0.194 | [2] -0.292 | [3] 0.084 | [4] -0.037 | [5] -0.065 | [6] -0.013 | [7] 0.092 | [8] 0.038 | [9] -0.006 | [10] -0.294

HSD17B8 (UniProt Q92506)
inactive: [1] 0.039 | [2] -0.005 | [3] -0.071 | [4] -0.046 | [5] 0.026 | [6] 0.069 | [7] 0.16 | [8] 0.016 | [9] -0.037 | [10] 0.102

HSP90AB1 (UniProt P08238)
inactive: [1] -0.115 | [2] -0.057 | [3] 0.065 | [4] 0.037 | [5] 0 | [6] -0.059 | [7] 0.003 | [8] 0.008 | [9] -0.065 | [10] 0.09

HNRNPAB isoform 3 (UniProt Q99729)
inactive: [1] 0.29 | [2] 0.243 | [3] -0.066 | [4] -0.151 | [5] -0.03 | [6] 0.207 | [7] -0.086 | [8] -0.129 | [9] 0.203 | [10] 0.247

Copied from the entries so far (six entries):
HSPA9 (UniProt P38646)
inactive: [1] -0.07 | [2] 0.022 | [3] -0.033 | [4] 0.028 | [5] 0.025 | [6] 0.063 | [7] -0.014 | [8] -0.011 | [9] -0.038 | [10] 0.007

HIBADH (UniProt P31937)
inactive: [1] 0.01 | [2] 0.043 | [3] -0.017 | [4] -0.032 | [5] 0.033 | [6] 0.018 | [7] -0.008 | [8] -0.013 | [9] -0.037 | [10] 0.07

HSPB1 (UniProt P04792)
inactive: [1] 0.023 | [2] -0.064 | [3] 0.028 | [4] -0.049 | [5] 0.016 | [6] 0.012 | [7] -0.005 | [8] 0.016 | [9] 0.096 | [10] 0.019

HTATSF1 (UniProt O43719)
inactive: [1] -0.194 | [2] -0.292 | [3] 0.084 | [4] -0.037 | [5] -0.065 | [6] -0.013 | [7] 0.092 | [8] 0.038 | [9] -0.006 | [10] -0.294

HSD17B8 (UniProt Q92506)
inactive: [1] 0.039 | [2] -0.005 | [3] -0.071 | [4] -0.046 | [5] 0.026 | [6] 0.069 | [7] 0.16 | [8] 0.016 | [9] -0.037 | [10] 0.102

HSP90AB1 (UniProt P08238)
inactive: [1] -0.115 | [2] -0.057 | [3] 0.065 | [4] 0.037 | [5] 0 | [6] -0.059 | [7] 0.003 | [8] 0.008 | [9] -0.065 | [10] 0.09

Following part:

HNRNPA3 (UniProt P51991)
inactive: [1] 0.22 | [2] 0.094 | [3] 0.02 | [4] -0.38 | [5] -0.066 | [6] 0.113 | [7] -0.127 | [8] -0.204 | [9] 0.232 | [10] 0.346

IBA57 (UniProt Q5T440)
inactive: [1] 0.039 | [2] -0.008 | [3] 0.016 | [4] 0.042 | [5] -0.013 | [6] -0.005 | [7] 0.02 | [8] 0.017 | [9] -0.105 | [10] 0.014

HNRNPA2B1 (UniProt P22626)
inactive: [1] 0.215 | [2] 0.116 | [3] -0.056 | [4] -0.391 | [5] 0.022 | [6] 0.322 | [7] -0.135 | [8] -0.179 | [9] 0.365 | [10] 0.226

HGS (UniProt O14964)
inactive: [1] -0.08 | [2] -0.194 | [3] 0.042 | [4] 0.008 | [5] 0.01 | [6] -0.008 | [7] 0.03 | [8] 0.01 | [9] -0.027 | [10] -0.078

HMMR isoform 3 (UniProt O75330)
inactive: [1] -0.014 | [2] -0.211 | [3] 0.043 | [4] 0.041 | [5] -0.054 | [6] -0.006 | [7] 0.021 | [8] 0.058 | [9] 0.072 | [10] -0.075

HMGB2 (UniProt P26583)
inactive: [1] -0.097 | [2] 0.052 | [3] 0.07 | [4] 0.031 | [5] 0.061 | [6] 0.02 | [7] 0 | [8] -0.01 | [9] -0.028 | [10] 0

HMGA1 (UniProt P17096)
inactive: [1] 0.093 | [2] 0.208 | [3] -0.032 | [4] -0.073 | [5] 0.059 | [6] 0.072 | [7] -0.066 | [8] -0.027 | [9] 0.114 | [10] 0.091
